Reference: patent US7736899B1, “Cells and method for producing proteins comprising an unconventional amino acid” (priority 1998, dated 2010)

Key:
[1] = tested on: strain β5498 (valS T222P); test: Amino acid composition of protein hydrolysate (ninhydrin, Beckman 6300); format: cell-based, E. coli; conditions: for Amino acid incorporated into the proteins: valine limiting
[2] = tested on: strain CU505 (wt valS); test: as above; format: cell-based, E. coli; conditions: valine limiting
[3] = β5498 valS T222P + Abu (0.2 mM L-aminobutyrate)
[4] = CU505 wt valS + Abu (0.2 mM L-aminobutyrate)
[5] = cultured with 0.2 mM L-aminobutyrate

Row | Compound | Amino acid incorporated into the proteins [1, 3] [Leu equivalents] | Amino acid incorporated into the proteins ([1]; β5498 valS T222P − Abu) [Leu equivalents] | Amino acid incorporated into the proteins [2, 4] [Leu equivalents] | Amino acid incorporated into the proteins ([2]; CU505 wt valS − Abu) [Leu equivalents] | aminobutyrate residues in the total proteins [1, 5] | proportion of the amount of valine replaced by aminobutyrate [1, 5]
1 | C[C@H](N)C(=O)O [Ala] | 1.22 | 1.28 | 1.32 | 1.32 | – | –
2 | CC[C@H](C)[C@H](N)C(=O)O [isoleucine] | 0.61 | 0.61 | 0.61 | 0.61 | – | –
3 | CC(C)[C@H](N)C(=O)O [valine] | 0.61 | 0.79 | 0.83 | 0.83 | – | –
4 | L-2-aminobutyrate | 0.20 | 0 | 0 | 0 | approximately 5 residues for 100 amino acids | a quarter
